In publication PMC4916389 one finds binding data, which are given here for 1 molecule.

Results are given in words; binding and its absence hold for the method and conditions named. Some results given as binding are weak or reduced against the parent protein; the word gives no strength. Sequences can lack the tags named with a protein.

The target of this assay is TAP42, yeast two-hybrid fusion (Sordaria macrospora) (UniProt F7VNJ5). Briefly: two-hybrid; Gal4 AD (pGADT7 derivatives, PJ69-4a) and BD (pGBKT7 derivatives, PJ69-4α) fusions in mated diploid S. cerevisiae; growth on SD medium lacking adenine, histidine, leucine and tryptophan/uracil; transactivating constructs pB-pp2Ac1, pB-pro11, pB-Smmob3 and pB-ENT1 omitted.

B1: TAP42, yeast two-hybrid fusion (protein, UniProt F7VNJ5 1-406)
chain: MSDQEPRSLKATFAAAEEKRLSLENSPPNPSDYADTLSAAIKLYQSCLSQISILSLFSSNEGLEDLNTNDLPYLLVNYHLAELIQKIPSPTPSPAERKRLLDQAREAYERYLHLLDSYEGLLNPTYKKRLERYTDSPTEFTVAGASASDPNARRNAKIANFKAEKELRQKLAYLRQRPEYAAADLELDDDESTTDQTGGGGNTGDEEVVRSVHLAHLDLCTHLTFQALESLNREMEVLNMAPREPASLPSAQLRGNNQAGAGNDMGAQDDLRRRQGGADPRDYSDRLDMPLSRLQGILGGSGPILSKEGRPLRPFTLTGTRQEIAKGVFRPSHNLPTMSIDEYLEEERRRGGIIEGGGEASWKAGEKNPDDEDDHEKLDAETMKARAWDEFVEANPKGAGNTLNRG
For the molecule B1, the binding entry was “binds”.
